Test results from doi:10.1101/2020.09.11.292599.
No constants are given. Whether binding was seen depends on the method and setting. Binding seen in cells or lysates may run through a third protein. A yes stands for co-enrichment or nearness to the bait. Other partners may have been found. Values belong to the binder of their own block, whether it stands above or below them.

Biological target: T1, PirC-mCitrine (Synechocystis sp. PCC 6803) (UniProt P77971)
T1 sequence: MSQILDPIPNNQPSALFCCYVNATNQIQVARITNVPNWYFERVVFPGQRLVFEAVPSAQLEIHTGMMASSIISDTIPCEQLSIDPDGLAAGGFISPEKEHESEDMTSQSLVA
Assay: affinity purification with mass spectrometry

- binding: binds
B1: 2,3-bisphosphoglycerate-independent phosphoglycerate mutase (PGAM, Slr1945), endogenous (enzyme, UniProt P74507 1-532)
chain: MAEAPIAPVVLVILDGWGYRPDTRANAIAQANTPIMDSLIAAYPNTLVNTSGKDVGLPKGQMGNSEVGHLNLGAGRVVPQELVRISDAIEDGTFFDNQALIEVCQRVRDRRGKLHLIGLCSDGGVHSHIDHLLGLIDLAKLQGISQLCIHAITDGRDTPTNEGAHFVQQIQAHLEKIGLGRIVSVSGRYYALDRDRRWDRVEKAYRVMTEDGVGDGRSAAQVIKDYYASDITDEFIPPTRIGAGAIASGDGVIFYNFRPDRARQLCYALVNPSFDGFPRERIQPLDFVTFTQYDPALPVVVAFEPQNLNNILGEIISRQGMKQFRTAETEKYPHVTYFFNGGLEQPFAGEDRELIQSPMVSTYDKAPQMSAKAVTDAVCRAMEKGIYSLVVVNYANPDMVGHTGKLKEAIQAIETVDLNLGRLLASAAKVGGTVLITADHGNAEYMSDESGNPWTAHTTNPVPFILVEGEGRKIPGHGGEVKLREGGKLADIAPTILDILQLPVPAEMTGKTLIDQPLVEIKANRTPVNLSR

- binding: binds
B2: CcmP (Slr0169), endogenous (protein, UniProt Q55550 1-213)
chain: MGIELRSYVYLDSLQSQHAAYIGTVASGFLPLPGDCSLWVEVSPGIEINRITDIALKAAVVRPGVLFVERLYGLLEIHASNQGEVRAAGQAILAYIGAKASDCIKPKVVSSQIIRNIDAYQTQLINRNRRGHMLLAGQTLFVLEVQPAAYASLAANEAEKSASINILQVSSIGSFGRLYLGGEERDIKAGARAAIAAIENAPGKVPTLEGKNE
